Results are given in words; binding and its absence hold for the method and conditions named. In cells and extracts the contact can be indirect. Binding can be weak; no strength is given.
Target: CDH1 (UniProt Q9UM11)
Test: co-IP; HEK293 cells transfected with indicated plasmids, pulled down with anti-FLAG beads, immunoblot (Figure 5E); IP lysis buffer 50 mM Tris-HCl pH 8.0, 120 mM NaCl, 1% Triton X-100, 1 mM EDTA, overnight at 4°C

Chains of the proteins cited; added tags and fusions are not shown. Lines headed by an entry give the natural chain unless they say otherwise; changes in a name come on top.
UniProt Q9UM11: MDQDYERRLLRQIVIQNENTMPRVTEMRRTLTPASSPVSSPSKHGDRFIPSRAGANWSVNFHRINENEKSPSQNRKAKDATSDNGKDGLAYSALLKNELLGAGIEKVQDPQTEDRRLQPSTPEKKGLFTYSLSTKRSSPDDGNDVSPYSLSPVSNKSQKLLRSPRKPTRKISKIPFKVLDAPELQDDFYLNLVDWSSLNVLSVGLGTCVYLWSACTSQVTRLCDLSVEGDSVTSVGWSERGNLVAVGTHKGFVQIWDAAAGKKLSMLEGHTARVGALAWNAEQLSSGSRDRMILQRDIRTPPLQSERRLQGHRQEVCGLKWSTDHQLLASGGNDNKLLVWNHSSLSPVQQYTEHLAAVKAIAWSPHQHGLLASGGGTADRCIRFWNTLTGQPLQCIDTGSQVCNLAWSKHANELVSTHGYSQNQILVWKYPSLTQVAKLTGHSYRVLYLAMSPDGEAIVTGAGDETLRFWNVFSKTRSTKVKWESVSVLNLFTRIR
UniProt Q8TB45: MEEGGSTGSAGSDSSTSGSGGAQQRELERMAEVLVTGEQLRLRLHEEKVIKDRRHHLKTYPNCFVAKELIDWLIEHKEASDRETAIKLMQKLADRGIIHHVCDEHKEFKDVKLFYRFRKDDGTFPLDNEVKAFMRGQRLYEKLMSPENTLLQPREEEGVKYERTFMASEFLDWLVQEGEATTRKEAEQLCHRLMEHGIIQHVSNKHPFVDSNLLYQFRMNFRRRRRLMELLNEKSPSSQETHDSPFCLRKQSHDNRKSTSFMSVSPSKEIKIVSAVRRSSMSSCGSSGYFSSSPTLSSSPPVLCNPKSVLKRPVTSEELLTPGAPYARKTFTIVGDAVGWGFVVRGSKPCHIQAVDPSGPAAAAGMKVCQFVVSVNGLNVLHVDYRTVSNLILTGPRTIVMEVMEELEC

Row | binding | Substance
1 | binds | DEPTOR MT1 (AXXA double mutant of D-box D1) (from UniProt Q8TB45)
2 | binds | DEPTOR MT2 (AXXA double mutant of D-box D2) (from UniProt Q8TB45)
3 | no binding | DEPTOR MT3 (AXXA double mutant of D-box D3) (from UniProt Q8TB45)
